# In patent US12233115B2, “Long-acting parathyroid hormone” (Extend Biosciences, Inc., priority 2022, dated 2025):
# pKd: −log10 of the molar value. At least one compound was matched to its structure with a doubt left.
# Columns and labels:
# [1] = target: T1, vitamin D binding protein (DBP) (Homo sapiens, UniProt P02774); assay: Bio-layer interferometry binding of DBP to immobilized biotinylated conjugate
# T1 construct: purchased Athens Research and Technology 16-16-070307
# T1 sequence (P02774 17-474): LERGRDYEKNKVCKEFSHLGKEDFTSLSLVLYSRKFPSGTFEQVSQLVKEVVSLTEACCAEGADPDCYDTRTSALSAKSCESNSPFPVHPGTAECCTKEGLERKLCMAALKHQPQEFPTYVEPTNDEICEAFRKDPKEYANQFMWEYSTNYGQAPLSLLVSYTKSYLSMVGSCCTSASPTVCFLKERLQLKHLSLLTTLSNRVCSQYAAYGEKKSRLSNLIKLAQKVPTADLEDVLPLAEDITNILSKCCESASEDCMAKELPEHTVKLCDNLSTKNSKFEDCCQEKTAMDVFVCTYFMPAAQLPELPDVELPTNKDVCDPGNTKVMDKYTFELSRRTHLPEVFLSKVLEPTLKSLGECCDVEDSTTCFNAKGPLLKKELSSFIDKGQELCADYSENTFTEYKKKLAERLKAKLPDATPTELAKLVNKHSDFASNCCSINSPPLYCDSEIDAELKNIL
# Experimental: EXT607 and EXT608 were biotinylated using the EZ-Link Sulfo-NHS Biotin No-Weigh kit (Thermo Fisher Scientific, Waltham, MA, Catalog No. PIA39256). One mmol of biotin was reacted with 1 mmol of conjugate for 1 hour at room temperature. Unbound biotin was separated from biotinylated conjugate with a PD-10 desalting column (GE Lifesciences/Cytiva, Marlborough, MA, Catalog No. 17085101). The biotinylation ratio was quantitated using the Pierce Biotin Quantitation Kit (Thermo Fisher Scientific, Waltham, MA, Catalog No. PI28005). DBP was purchased from Athens Research and Technology (Athens, GA, Catalog No. 16-16-070307).
# Affinity measurements were collected on the Octet Red96 using prehydrated Dip and Read Streptavidin (SA) Biosensors (ForteBio, Fremont, CA, Catalog No. 18-5021). Reagents were diluted into phosphate buffered saline (PBS) with 0.02% Tween 20 in a black 96-well plate. Biotinylated EXT607 or EXT608 were prepared at a biotin concentration of 50 μg/mL and loaded onto the SA tips for 2 minutes. A buffer-only negative loading control was used to measure non-specific binding of DBP to the SA biosensors. A titration of DBP ranging from 0 to 75 μM was prepared. DBP was associated to the loaded tips for 5 minutes and dissociated with buffer solution for 10 minutes.
# [2] = tested on: Thyroparathyroidectomized (TPTx) rats; assay: 28-day pharmacodynamic study in thyroparathyroidectomized (TPTx) rats; type: in vivo, rat; conditions: for % Increase in Serum Calcium, Cumulative: Days 1, 12, 27, relative to TPTx/vehicle; for % Decrease in Serum Phosphate, Combined: Days 12, 27, relative to TPTx/vehicle
# Text: 28-day Pharmacodynamic Study of EXT607 in TPTx Rats. Thyroparathyroidectomized (TPTx) rats are a model for hypoparathyroidism. To produce TPTx rats, the thyroid and parathyroid glands were surgically resected and the rats were given L-thyroxine to compensate for the loss of their thyroid. Due to the absence of PTH, TPTx rats had lower levels of serum calcium and higher levels of serum phosphate.
# Each group consisted of 10 female rats split into two cohorts of 5 animals for blood sampling purposes. On days 1, 12, and 27, blood (˜0.2 ml) was collected into serum separation tubes at t=0 (pre-dose), 2, 6, 10, and 24 h. The samples were processed into serum by standard methods and analyzed for serum total calcium and phosphate.
# Calcium levels at 3 and 10 nmol/kg (20 and 60 μg/kg) were at or just below the normal range of calcium levels for healthy animals. […] For each timepoint, the percent increase in serum calcium relative to the TPTx vehicle control group (Group 2) was determined and daily averages were calculated (Table 9B). Over the three days sampled (Days 1, 12, and 27), […] increased serum calcium an average of 17, 28, and 37% at 1, 3, and 10 nmol/kg, respectively.
# At each timepoint, the percent decrease in serum phosphate relative to the TPTx vehicle control group (Group 2) was determined, and daily averages were calculated (Table 9C).
# [3] = 1 nmol/kg SC daily, Day 1, relative to TPTx/vehicle
# [4] = 1 nmol/kg SC daily, Day 12, relative to TPTx/vehicle
# [5] = 1 nmol/kg SC daily, Day 27, relative to TPTx/vehicle
# [6] = 3 nmol/kg SC daily, Day 1, relative to TPTx/vehicle
# [7] = 3 nmol/kg SC daily, Day 12, relative to TPTx/vehicle
# [8] = 3 nmol/kg SC daily, Day 27, relative to TPTx/vehicle
# [9] = 10 nmol/kg SC daily, Day 1, relative to TPTx/vehicle
# [10] = 10 nmol/kg SC daily, Day 12, relative to TPTx/vehicle
# [11] = 10 nmol/kg SC daily, Day 27, relative to TPTx/vehicle
smiles,measurement,setting,value
C=C1CC[C@H](OCCCNC(=O)CCOCCOCCOCCOCCOCCOCCOCCOCCOCCOCCOCCOCCOCCOCCOCCOCCOCCOCCOCCOCCOCCOCCOCCOCCOCCOCCOCCOCCOCCOCCOCCOCCOCCOCCOCCOCCNC(=O)CCN2C(=O)CC(SC[C@H](NC(=O)[C@H](Cc3ccccc3)NC(=O)[C@H](CC(N)=O)NC(=O)[C@H](Cc3c[nH]cn3)NC(=O)[C@@H](NC(=O)[C@H](CC(=O)O)NC(=O)[C@H](CCC(N)=O)NC(=O)[C@H](CC(C)C)NC(=O)[C@H](CCCCN)NC(=O)[C@H](CCCCN)NC(=O)[C@H](CCCNC(=N)N)NC(=O)[C@H](CC(C)C)NC(=O)[C@H](Cc3c[nH]c4ccccc34)NC(=O)[C@H](CCC(=O)O)NC(=O)[C@@H](NC(=O)[C@H](CCCNC(=N)N)NC(=O)[C@H](CCC(=O)O)NC(=O)[C@H](CCSC)NC(=O)[C@H](CO)NC(=O)[C@H](CC(N)=O)NC(=O)[C@H](CC(C)C)NC(=O)[C@H](Cc3c[nH]cn3)NC(=O)[C@H](CCCCN)NC(=O)CNC(=O)[C@H](CC(C)C)NC(=O)[C@H](CC(N)=O)NC(=O)[C@H](Cc3c[nH]cn3)NC(=O)[C@H](CCSC)NC(=O)[C@H](CC(C)C)NC(=O)[C@H](CCC(N)=O)NC(=O)[C@@H](NC(=O)[C@H](CCC(=O)O)NC(=O)[C@H](CO)NC(=O)[C@@H](NC(=O)[C@@H](N)CO)C(C)C)[C@@H](C)CC)C(C)C)C(C)C)C(=O)O)C2=O)C/C1=C/C=C1\CCC[C@]2(C)[C@@H]([C@H](C)CCCC(C)(C)O)CC[C@@H]12 (stereo partly shown) [EXT607],maximum response (BLI shift),[1],1.79 nm
same,pKd,"[1]; BLI steady state fit, DBP 0-75 μM, read-out: KD (binding equilibrium constant)",5.09
same,"% Decrease in Serum Phosphate, Daily Average",[2]; [3],−2.2%
same,"% Increase in Serum Calcium, Daily Average",[2]; [3],22%
same,"% Decrease in Serum Phosphate, Daily Average",[2]; [4],14%
same,"% Increase in Serum Calcium, Daily Average",[2]; [4],15%
same,"% Decrease in Serum Phosphate, Daily Average",[2]; [5],17%
same,"% Increase in Serum Calcium, Daily Average",[2]; [5],15%
same,"% Increase in Serum Calcium, Cumulative",[2]; 1 nmol/kg SC daily,17%
same,"% Decrease in Serum Phosphate, Combined",[2]; 1 nmol/kg SC daily,15%
same,"% Decrease in Serum Phosphate, Daily Average",[2]; [6],3.4%
same,"% Increase in Serum Calcium, Daily Average",[2]; [6],30%
same,"% Decrease in Serum Phosphate, Daily Average",[2]; [7],28%
same,"% Increase in Serum Calcium, Daily Average",[2]; [7],24%
same,"% Decrease in Serum Phosphate, Daily Average",[2]; [8],26%
same,"% Increase in Serum Calcium, Daily Average",[2]; [8],30%
same,"% Increase in Serum Calcium, Cumulative",[2]; 3 nmol/kg SC daily,28%
same,"% Decrease in Serum Phosphate, Combined",[2]; 3 nmol/kg SC daily,27%
same,"% Decrease in Serum Phosphate, Daily Average",[2]; [9],6.1%
same,"% Increase in Serum Calcium, Daily Average",[2]; [9],42%
same,"% Decrease in Serum Phosphate, Daily Average",[2]; [10],39%
same,"% Increase in Serum Calcium, Daily Average",[2]; [10],23%
same,"% Decrease in Serum Phosphate, Daily Average",[2]; [11],37%
same,"% Increase in Serum Calcium, Daily Average",[2]; [11],47%
same,"% Increase in Serum Calcium, Cumulative",[2]; 10 nmol/kg SC daily,37%
same,"% Decrease in Serum Phosphate, Combined",[2]; 10 nmol/kg SC daily,38%
same,increase in serum calcium compared to TPTx controls (in words),"[2]; daily SC dosing (EXT607 1, 3, 10 nmol/kg; PTH peptides 10 nmol/kg)",immediate dose-dependent increases in serum calcium compared to TPTx controls that lasted for the 24 h dosing period
same,decrease in serum phosphate (in words),"[2]; daily SC dosing (EXT607 all dose levels; PTH peptides 10 nmol/kg), from Day 12",Notable decreases
